Assay results: patent US20030172388A1
These are yes or no findings as the source states them, for the method shown. For some assays here: Binding seen in cells or lysates may run through a third protein. Some results given as binding are weak or reduced against the parent protein; the word gives no strength. For some assays here: Tags and fused reporters may be left off the sequences shown. Each block holds one binder with its values, some of them ahead of it.

Protein sequences, listed by entry. Tags and fused reporters are not part of them. Lines headed by an entry give the natural chain unless they say otherwise; changes in a name come on top.
UniProt Q07820: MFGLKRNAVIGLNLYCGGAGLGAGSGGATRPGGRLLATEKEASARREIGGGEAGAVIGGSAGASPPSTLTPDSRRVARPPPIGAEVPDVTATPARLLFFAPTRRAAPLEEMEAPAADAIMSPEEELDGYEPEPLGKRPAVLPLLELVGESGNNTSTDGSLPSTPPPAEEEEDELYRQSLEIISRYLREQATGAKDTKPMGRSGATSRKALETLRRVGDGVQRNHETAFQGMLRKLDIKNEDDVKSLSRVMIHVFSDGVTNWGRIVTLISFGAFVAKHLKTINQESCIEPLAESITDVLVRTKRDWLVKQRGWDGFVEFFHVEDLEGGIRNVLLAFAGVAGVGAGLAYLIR
UniProt P04386: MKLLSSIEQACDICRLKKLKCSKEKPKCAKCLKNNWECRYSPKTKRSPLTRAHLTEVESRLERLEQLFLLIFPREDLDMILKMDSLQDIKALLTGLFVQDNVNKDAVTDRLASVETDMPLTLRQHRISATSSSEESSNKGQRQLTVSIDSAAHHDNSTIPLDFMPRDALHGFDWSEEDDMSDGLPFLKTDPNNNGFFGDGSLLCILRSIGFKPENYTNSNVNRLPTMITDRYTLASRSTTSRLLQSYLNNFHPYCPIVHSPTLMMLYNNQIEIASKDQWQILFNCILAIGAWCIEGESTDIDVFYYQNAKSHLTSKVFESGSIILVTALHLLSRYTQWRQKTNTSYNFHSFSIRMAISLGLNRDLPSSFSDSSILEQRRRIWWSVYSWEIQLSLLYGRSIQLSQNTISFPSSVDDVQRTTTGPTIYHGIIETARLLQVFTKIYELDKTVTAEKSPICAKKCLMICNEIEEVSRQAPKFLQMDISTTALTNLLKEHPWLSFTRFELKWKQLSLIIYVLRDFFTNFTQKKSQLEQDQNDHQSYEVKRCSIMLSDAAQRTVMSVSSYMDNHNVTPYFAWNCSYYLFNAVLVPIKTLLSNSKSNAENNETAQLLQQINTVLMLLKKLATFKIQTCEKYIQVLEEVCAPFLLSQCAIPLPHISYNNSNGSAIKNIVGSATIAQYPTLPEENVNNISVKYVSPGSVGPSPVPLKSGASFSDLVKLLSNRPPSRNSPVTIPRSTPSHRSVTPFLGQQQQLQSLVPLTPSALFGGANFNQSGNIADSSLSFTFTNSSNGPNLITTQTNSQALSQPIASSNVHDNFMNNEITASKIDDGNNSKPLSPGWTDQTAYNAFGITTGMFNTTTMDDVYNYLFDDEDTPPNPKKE

Tests used:
p53 [1] = target: p53 (UniProt P04637); assay: co-immunoprecipitation with anti-HA antibody (3F10) from lysate of stable U2OS transfectants, Western blot with anti-p53
[2] = target: MCL1 (Myeloid Cell Leukemia 1) (UniProt Q07820); assay: GST pull-down with Glutathione Sepharose 4B, in vitro translated [35S]-labelled MCL1, fluorography
p53 [3] = target: p53 (UniProt P04637); assay: GST pull-down with Glutathione Sepharose 4B, in vitro translated [35S]-labelled p53, fluorography
p53 [4] = target: p53 (UniProt P04637); assay: co-immunoprecipitation of endogenous proteins from U2OS lysate with anti-p53 antibody DO-1, Western blot with anti-fortilin
[5] = target: full-length MCL1 fused to the GAL4 DNA-binding domain (pAS2.1-MCL1) (UniProt P04386); assay: yeast two-hybrid library screen, GAL4 DNA-BD-MCL1 bait against a human fetal liver library

binding (p53 [1]): binds
B1: HA-fortilin stably expressed in U2OS cells (Example 12) (protein, not shown: small tags and cut ends)
chain: MIIYRDLISHDEMFSDIYKIREIADGLCLEVEGKMVSRTEGNIDDSLIGGNASAEGPEGEGTESTVITGVDIVMNHHLQETSFTKEAYKKYIKDYMKSIKGKLEEQRPERVKPFMTGAAEQIKHILANFKNYQFFIGENMNPDGMVALLDYREDGVTPYMIFFKDGLEMEKC

binding [2]: binds | binding (p53 [3]): binds
B2: recombinant GST-Fortilin (protein, not shown: a dimerising Fc or GST)
chain: B1 chain

binding (p53 [4]): binds
B3: Fortilin (Translationally Controlled Tumor Protein, TCTP), native (protein)
chain: B1 chain

binding [5]: binds
B4: FL1 (Fortilin amino acids 5-172) fused to the GAL4 DNA-activating domain (protein, not shown: large carriers)
chain: RDLISHDEMFSDIYKIREIADGLCLEVEGKMVSRTEGNIDDSLIGGNASAEGPEGEGTESTVITGVDIVMNHHLQETSFTKEAYKKYIKDYMKSIKGKLEEQRPERVKPFMTGAAEQIKHILANFKNYQFFIGENMNPDGMVALLDYREDGVTPYMIFFKDGLEMEKC
